These are yes or no findings as the source states them, for the method shown. Some binding calls cover weakened binding; strength is not graded here. Blank lines part the entries; values can stand above or below the binder they belong to.
What was measured:
[1] = target: human PD-1-His (R & D systems, Minneapolis, Minn.) (human) (UniProt Q15116); test: BLI (ForteBio Octet), antibody on the sensor, human PD-1-His in solution
[2] = target: human PD-1-His (R & D systems, Minneapolis, Minn.) (human) (UniProt Q15116); test: BLI
[3] = target: human PD-1-Fc (R and D systems, Minneapolis, Minn.) (human) (UniProt Q15116); test: plate ELISA on human PD-1-Fc
[4] = target: human PD-1-Fc (R and D systems, Minneapolis, Minn.) (human) (UniProt Q15116); test: standard plate ELISA on hPD1 after overnight incubation with 60 ug/mL rh uPA

Protein sequences, listed by entry. Tags and fused reporters are not part of them. Residues count along the entry.
UniProt Q15116, residues 25-167: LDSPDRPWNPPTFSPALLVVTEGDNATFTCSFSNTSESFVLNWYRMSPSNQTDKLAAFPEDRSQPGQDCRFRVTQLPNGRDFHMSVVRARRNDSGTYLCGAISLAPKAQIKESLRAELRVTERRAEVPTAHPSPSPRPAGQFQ

binding [1]: binds | binding [2]: binds | binding [3]: binds
B1: Ba2 (antibody, human IgG4 S228P, kappa, V domains shown)
VH: QVQLVQSGAEVKKPGASVKMSCKASGYTFTDYYMDWVRQAPGQGLEWIGYIYPKNGGSSYAQKFQGRATLTVDTSTSTAYMELSSLRSEDTAVYYCARKVVATDYWGQGTLLTVSS
VL: DIQMTQSPSSLSASVGDRVTMTCKSSQSLLYSSNQKNYLAWYQQKPGKAPKLLIFWASIRESGVPSRFSGSGSGTDFTLTISSVQPEDFATYYCQQSDSYPWTFGQGTKLEIKR

binding [4]: binds
B2: A1.5 PD34 2001 activatable antibody incubated with recombinant human urokinase (rh uPA) (antibody, V domains shown, not shown: small tags and cut ends)
VH: EVQLVESGGGLVQPGGSLRLSCAASGFTFSGYAMSWVRQAPGKGLEWVAYISNSGGNAHYADSVKGRFTISRDNSKNTLYLQMNSLRAEDTAVYYCTREDYGTSPFVYWGQGTLVTVSS
VL: DIQLTQSPSSLSASVGDRVTITCRASESVDAYGISFMNWFQQKPGKAPKLLIYAASNQGSGVPSRFSGSGSGTDFTLTISSMQPEDFATYYCQQSKDVPWTFGQGTKLEIKR
